Measured values published in patent publication US9023873B2, “Insecticidal 2-methoxybenzamide derivatives” (Syngenta Participations AG, priority 2011, dated 2015).
Some of these results come from one statement about several compounds together.

How the values were obtained:
Assay type in all cases: in vivo
[1] = test system: Myzus persicae (Green peach aphid); assay: Myzus persicae sunflower leaf disc spray test; settings: 200 ppm spray on sunflower leaf discs, aphid population of mixed ages, 6 DAT; mortality
[2] = test system: Heliothis virescens (Tobacco budworm); assay: Heliothis virescens egg test on artificial diet; settings: 200 ppm (concentration in well 18 ppm), eggs 0-24 h old on artificial diet, 4 days; egg mortality, larval mortality, growth regulation
[3] = test system: Thrips tabaci (Onion thrips); assay: Thrips tabaci sunflower leaf disc spray test; settings: 200 ppm spray on sunflower leaf discs, population of mixed ages, 7 days; mortality
[4] = test system: Tetranychus urticae (Two-spotted spider mite); assay: Tetranychus urticae bean leaf disc spray test; settings: 200 ppm spray on bean leaf discs, mite populations of mixed ages, 8 days; egg, larval and adult mortality
[5] = test system: Diabrotica balteata (Corn root worm); assay: Diabrotica balteata larval test on artificial diet; settings: 200 ppm (concentration in well 18 ppm), L2 larvae, 5 days, larval mortality, growth regulation
[6] = test system: Plutella xylostella (Diamond back moth); assay: Plutella xylostella larval test on artificial diet; settings: 200 ppm (concentration in well 18 ppm), L2 larvae, 6 days, larval mortality, growth regulation
[7] = test system: Spodoptera littoralis (Egyptian cotton leafworm); assay: Spodoptera littoralis cotton leaf disc spray test; settings: 200 ppm spray on cotton leaf discs, L1 larvae, mortality, feeding behavior, growth regulation 3 days after treatment

CCc1cc(C(F)(C(F)(F)F)C(F)(F)F)cc(Br)c1NC(=O)c1cccc(N(CC)C(=O)c2ccncc2)c1OC [Compound J3]
at least 80%: control of Myzus persicae [1] | control of Heliothis virescens [2] | control of Thrips tabaci [3] | control of Tetranychus urticae [4] | control of Diabrotica balteata [5] | control of Plutella xylostella [6] | control of Spodoptera littoralis [7]
